We go through three molecules from paper PMC4821994.

Amino acid sequences for entries named in this document (tags omitted).
UniProt Q08775: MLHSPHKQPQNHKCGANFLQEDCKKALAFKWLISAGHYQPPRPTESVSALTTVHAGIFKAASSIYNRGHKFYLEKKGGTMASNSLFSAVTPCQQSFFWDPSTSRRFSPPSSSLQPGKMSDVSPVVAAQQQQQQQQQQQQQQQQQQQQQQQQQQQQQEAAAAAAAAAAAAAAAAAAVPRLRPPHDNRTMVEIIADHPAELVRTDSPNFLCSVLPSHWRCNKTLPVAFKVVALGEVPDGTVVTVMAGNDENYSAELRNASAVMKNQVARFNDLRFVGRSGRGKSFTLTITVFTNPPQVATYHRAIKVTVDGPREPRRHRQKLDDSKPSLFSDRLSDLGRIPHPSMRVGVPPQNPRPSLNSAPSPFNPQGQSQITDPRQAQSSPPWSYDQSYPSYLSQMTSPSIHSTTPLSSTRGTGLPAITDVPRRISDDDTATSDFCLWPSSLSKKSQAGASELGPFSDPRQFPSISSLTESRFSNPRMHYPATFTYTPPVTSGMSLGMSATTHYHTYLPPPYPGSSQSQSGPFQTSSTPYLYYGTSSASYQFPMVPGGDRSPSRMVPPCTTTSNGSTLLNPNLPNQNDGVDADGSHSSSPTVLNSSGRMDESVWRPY

No constants are given. Whether binding was seen depends on the method and setting. For part of these data: In cells and extracts the contact can be indirect. Some binding calls cover weakened binding; strength is not graded here. For part of these data: Sequences can lack the tags named with a protein.

One assay concerns the target Flag-RUNX2 (UniProt Q08775). Put plainly: co-IP; Flag-RUNX2 and Myc-Med23 co-transfected into 293T cells; lysis buffer 1% NP-40, 10% glycerol, 135 mM NaCl, 20 mM Tris pH 8.0; IP with anti-Flag (M2) at 4 °C overnight, immunoblot with anti-Myc.
For the next assay, the target named is GST-RUNX2 (UniProt Q08775). Put plainly: pull-down; purified GST or GST-Runx2 incubated with purified MED23, GST pull-down; bound proteins analysed by SDS-10% PAGE and immunoblot with anti-GST and anti-MED23; both purified. In general terms: In western blotting, separated proteins are transferred to a membrane and probed.
For assay [1], the target named is endogenous RUNX2 (mouse (endogenous in MC3T3E1)) (UniProt Q08775). Put plainly: co-IP; endogenous proteins in MC3T3E1 cells cultured 4 days with 100 ng/ml BMP2, ascorbic acid and beta-glycerophosphate, MG132 (10 uM) for 2 h before harvest; IP with anti-RUNX2, anti-MED23 or control IgG, immunoblot with anti-MED23 and anti-Runx2.

B1: Myc-Med23 (protein, UniProt Q80YQ2 1-1367)
chain: METQLQSIFEEVVKTEIIEEAFPGMFMDTPEDEKTKLISCLAAFRQFWSGLSQESHEQCVQWIVKFIHGQHSPKRISFLYDCLAMAVETGLLPPRMVCESLINSDSLEWERTQLWALTFKLVRKIIGGVDYKGVRDLLKAILEKILTIPNTVSSAVVQQLLAAREVIAYILERNACLLPAYFAVTEIRKLYPEGKLPHWLLGNLVSDFVDTFRPTARINSICGRCSLLPVVNNSGAICNSWKLDPATLRFPLKGLLPYDKDLFEPQTALLRYVLEQPYSRDMVCNMLGLNKQHKQRCPVLEDQLVDLVVYAMERSETEEKFDDGGTSQLLWQHLSSQLIFFVLFQFASFPHMVLSLHQKLAGRGLIKGRDHLMWVLLQFISGSIQKNALADFLPVMKLFDLLYPEKECIPVPDINKPQSTHAFAMTCIWIHLNRKAQNGDSTLQIPIPHSLKLHHEFLQQSLRNKSLQMNDYKIALLCNAYSTNSECFTLPMGALVETIYGNGIMRVPLPGTSCLASASVTPLPMNLLDSLTVHAKMSLIHSIATRVIKLAHTKSSVALAPALVETYSRLLVYMEIESLGIKGFISQLLPTVFKSHAWGILHTLLEMFSHRMHHIQPHYRVQLLSHLHTLAAVAQTNQNQLHLCVESTALRLITALGSSEVQPQFTRFLNDPKTVLSAESEELNRALILTLARATHVTDFFTGSDSIQGTWCKDILQTIMNFTPHNWASHTLSCFPAPLQAFFKQNNVPQESRFNLKKNVEEEYRKWKSMTDENEIITQFSVQGFPPLFLCLLWKMLLETDHISQIGYKVLERIGARALVAHVRTFADFLVYEFSTSAGGQQLNKCIEILNDMVWKYNIVTLDRLILCLAMRSHEGNEAQVCYFIIQLLLLKPNDFRNRVSDFVKENSPEHWLQSDWHTKHMSYHKKYPEKLYFEGLAEQVDPPVPIQSPYLPIYFGNVCLRFLPVFDIVIHRFLELLPVSKSLETLLDHLGGLYKFHDRPVTYLYNTLHYYEMCLRNRDHLKRKLVHAIIGSLKDNRPQGWCLSDTYLKHAMNAREDNPWVPEDSYYCKLIGRLVDTMAGKSPGPFPNCDWRFNEFPNPAAHALHVTCVELMALAVPGKDVGNALLNVVLKSQPLVPRENITAWMNAIGLIITALPEPYWIVLHDRIVNVISSSSLTSETEWVGYPFRLFDFTACHQSYSEMSCSYTLALAHAVWHHSSIGQLSLIPKFLTEALLPVVKTEFQLLYVYHLVGPFLQRFQQERTRCMIEIGVAFYDMLLNVDQCSTHLNYMDPICDFLYHMKYMFTGDSVKEQVEKIICNLKPALKLRLRFITHISKMEPAVPPQALNSGSPAPQSNQVPASLPVTQ
As to B1, in the assay with Flag-RUNX2, the binding result is reported as “binds”.

B2: His-Flag-MED23 (protein, UniProt Q80YQ2 1-1367)
chain: METQLQSIFEEVVKTEIIEEAFPGMFMDTPEDEKTKLISCLAAFRQFWSGLSQESHEQCVQWIVKFIHGQHSPKRISFLYDCLAMAVETGLLPPRMVCESLINSDSLEWERTQLWALTFKLVRKIIGGVDYKGVRDLLKAILEKILTIPNTVSSAVVQQLLAAREVIAYILERNACLLPAYFAVTEIRKLYPEGKLPHWLLGNLVSDFVDTFRPTARINSICGRCSLLPVVNNSGAICNSWKLDPATLRFPLKGLLPYDKDLFEPQTALLRYVLEQPYSRDMVCNMLGLNKQHKQRCPVLEDQLVDLVVYAMERSETEEKFDDGGTSQLLWQHLSSQLIFFVLFQFASFPHMVLSLHQKLAGRGLIKGRDHLMWVLLQFISGSIQKNALADFLPVMKLFDLLYPEKECIPVPDINKPQSTHAFAMTCIWIHLNRKAQNGDSTLQIPIPHSLKLHHEFLQQSLRNKSLQMNDYKIALLCNAYSTNSECFTLPMGALVETIYGNGIMRVPLPGTSCLASASVTPLPMNLLDSLTVHAKMSLIHSIATRVIKLAHTKSSVALAPALVETYSRLLVYMEIESLGIKGFISQLLPTVFKSHAWGILHTLLEMFSHRMHHIQPHYRVQLLSHLHTLAAVAQTNQNQLHLCVESTALRLITALGSSEVQPQFTRFLNDPKTVLSAESEELNRALILTLARATHVTDFFTGSDSIQGTWCKDILQTIMNFTPHNWASHTLSCFPAPLQAFFKQNNVPQESRFNLKKNVEEEYRKWKSMTDENEIITQFSVQGFPPLFLCLLWKMLLETDHISQIGYKVLERIGARALVAHVRTFADFLVYEFSTSAGGQQLNKCIEILNDMVWKYNIVTLDRLILCLAMRSHEGNEAQVCYFIIQLLLLKPNDFRNRVSDFVKENSPEHWLQSDWHTKHMSYHKKYPEKLYFEGLAEQVDPPVPIQSPYLPIYFGNVCLRFLPVFDIVIHRFLELLPVSKSLETLLDHLGGLYKFHDRPVTYLYNTLHYYEMCLRNRDHLKRKLVHAIIGSLKDNRPQGWCLSDTYLKHAMNAREDNPWVPEDSYYCKLIGRLVDTMAGKSPGPFPNCDWRFNEFPNPAAHALHVTCVELMALAVPGKDVGNALLNVVLKSQPLVPRENITAWMNAIGLIITALPEPYWIVLHDRIVNVISSSSLTSETEWVGYPFRLFDFTACHQSYSEMSCSYTLALAHAVWHHSSIGQLSLIPKFLTEALLPVVKTEFQLLYVYHLVGPFLQRFQQERTRCMIEIGVAFYDMLLNVDQCSTHLNYMDPICDFLYHMKYMFTGDSVKEQVEKIICNLKPALKLRLRFITHISKMEPAVPPQALNSGSPAPQSNQVPASLPVTQ
B2: the binding result with GST-RUNX2 is “binds”.

B3: endogenous MED23 (protein, UniProt Q80YQ2 1-1367)
chain: METQLQSIFEEVVKTEIIEEAFPGMFMDTPEDEKTKLISCLAAFRQFWSGLSQESHEQCVQWIVKFIHGQHSPKRISFLYDCLAMAVETGLLPPRMVCESLINSDSLEWERTQLWALTFKLVRKIIGGVDYKGVRDLLKAILEKILTIPNTVSSAVVQQLLAAREVIAYILERNACLLPAYFAVTEIRKLYPEGKLPHWLLGNLVSDFVDTFRPTARINSICGRCSLLPVVNNSGAICNSWKLDPATLRFPLKGLLPYDKDLFEPQTALLRYVLEQPYSRDMVCNMLGLNKQHKQRCPVLEDQLVDLVVYAMERSETEEKFDDGGTSQLLWQHLSSQLIFFVLFQFASFPHMVLSLHQKLAGRGLIKGRDHLMWVLLQFISGSIQKNALADFLPVMKLFDLLYPEKECIPVPDINKPQSTHAFAMTCIWIHLNRKAQNGDSTLQIPIPHSLKLHHEFLQQSLRNKSLQMNDYKIALLCNAYSTNSECFTLPMGALVETIYGNGIMRVPLPGTSCLASASVTPLPMNLLDSLTVHAKMSLIHSIATRVIKLAHTKSSVALAPALVETYSRLLVYMEIESLGIKGFISQLLPTVFKSHAWGILHTLLEMFSHRMHHIQPHYRVQLLSHLHTLAAVAQTNQNQLHLCVESTALRLITALGSSEVQPQFTRFLNDPKTVLSAESEELNRALILTLARATHVTDFFTGSDSIQGTWCKDILQTIMNFTPHNWASHTLSCFPAPLQAFFKQNNVPQESRFNLKKNVEEEYRKWKSMTDENEIITQFSVQGFPPLFLCLLWKMLLETDHISQIGYKVLERIGARALVAHVRTFADFLVYEFSTSAGGQQLNKCIEILNDMVWKYNIVTLDRLILCLAMRSHEGNEAQVCYFIIQLLLLKPNDFRNRVSDFVKENSPEHWLQSDWHTKHMSYHKKYPEKLYFEGLAEQVDPPVPIQSPYLPIYFGNVCLRFLPVFDIVIHRFLELLPVSKSLETLLDHLGGLYKFHDRPVTYLYNTLHYYEMCLRNRDHLKRKLVHAIIGSLKDNRPQGWCLSDTYLKHAMNAREDNPWVPEDSYYCKLIGRLVDTMAGKSPGPFPNCDWRFNEFPNPAAHALHVTCVELMALAVPGKDVGNALLNVVLKSQPLVPRENITAWMNAIGLIITALPEPYWIVLHDRIVNVISSSSLTSETEWVGYPFRLFDFTACHQSYSEMSCSYTLALAHAVWHHSSIGQLSLIPKFLTEALLPVVKTEFQLLYVYHLVGPFLQRFQQERTRCMIEIGVAFYDMLLNVDQCSTHLNYMDPICDFLYHMKYMFTGDSVKEQVEKIICNLKPALKLRLRFITHISKMEPAVPPQALNSGSPAPQSNQVPASLPVTQ
As for B3, in assay [1], the binding entry is on record as “binds”.
